# Values quoted from earlier work in US20040081973A1, “Cloning and characterization of a novel BK channel isoform highly expressed in glioma cells” (priority 2002, published 2004).
# Chains of the proteins cited; added tags and fusions are not shown. Lines headed by an entry give the natural chain unless they say otherwise; changes in a name come on top.
# UniProt Q12791: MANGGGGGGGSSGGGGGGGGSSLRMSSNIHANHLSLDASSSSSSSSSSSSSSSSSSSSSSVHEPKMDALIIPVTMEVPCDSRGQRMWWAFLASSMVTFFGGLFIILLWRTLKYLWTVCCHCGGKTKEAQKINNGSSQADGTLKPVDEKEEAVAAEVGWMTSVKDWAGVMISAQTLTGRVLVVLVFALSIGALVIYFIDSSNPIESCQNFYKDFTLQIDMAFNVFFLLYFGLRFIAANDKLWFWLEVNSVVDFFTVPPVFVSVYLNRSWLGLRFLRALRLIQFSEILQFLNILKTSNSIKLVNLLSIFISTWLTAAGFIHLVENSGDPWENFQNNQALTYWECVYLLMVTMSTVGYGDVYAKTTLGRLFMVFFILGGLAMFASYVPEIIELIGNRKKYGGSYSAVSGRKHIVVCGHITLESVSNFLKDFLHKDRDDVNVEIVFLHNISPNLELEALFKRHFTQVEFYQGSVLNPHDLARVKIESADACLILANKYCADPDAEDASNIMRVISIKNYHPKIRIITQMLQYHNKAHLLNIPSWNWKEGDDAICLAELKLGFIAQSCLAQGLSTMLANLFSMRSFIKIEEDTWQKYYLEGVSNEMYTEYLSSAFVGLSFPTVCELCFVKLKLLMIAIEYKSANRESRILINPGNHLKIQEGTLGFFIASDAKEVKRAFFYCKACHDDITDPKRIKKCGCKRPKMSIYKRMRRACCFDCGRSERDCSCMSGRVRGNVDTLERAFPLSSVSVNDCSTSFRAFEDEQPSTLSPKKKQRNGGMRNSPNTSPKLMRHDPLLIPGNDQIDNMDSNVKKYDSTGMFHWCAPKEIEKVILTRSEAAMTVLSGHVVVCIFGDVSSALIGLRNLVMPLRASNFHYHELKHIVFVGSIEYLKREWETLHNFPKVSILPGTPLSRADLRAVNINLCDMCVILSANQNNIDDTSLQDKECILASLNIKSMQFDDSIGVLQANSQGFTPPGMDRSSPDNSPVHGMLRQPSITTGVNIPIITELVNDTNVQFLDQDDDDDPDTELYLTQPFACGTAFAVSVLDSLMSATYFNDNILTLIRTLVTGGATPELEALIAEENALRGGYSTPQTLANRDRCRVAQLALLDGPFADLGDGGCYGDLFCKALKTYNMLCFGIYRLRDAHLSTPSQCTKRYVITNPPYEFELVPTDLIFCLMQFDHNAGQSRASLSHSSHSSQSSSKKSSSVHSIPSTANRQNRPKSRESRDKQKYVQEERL
# At least one structure is not confirmed: it was looked up by name or label, or the drawing left a doubt.
# Biological target: β-subunit-containing channels (Homo sapiens, UniProt Q12791)
# Conditions: 3 uM tetrandrine; reported; cited from earlier work
compound,measurement,value
COc1ccc2cc1Oc1ccc(cc1)C[C@H]1c3cc(c(OC)cc3CCN1C)Oc1c(OC)c(OC)cc3c1[C@H](C2)N(C)CC3 [tetrandrine],Inhibition of β-subunit-containing channels,over 50%
